{
  "source": "patent US4179433A",
  "about": "(Richter Gedeon Vegyeszeti Gyar Rt., priority 1977, dated 1979)",
  "assay": "general procedure: solution-phase peptide synthesis; pentafluorophenyl active esters (Boc-AA-OPFP), triethylamine",
  "conditions": "for crude mass / crude yield: whole synthesis; for crude yield: scale of the general procedure 10 mmoles",
  "data": [
    {"substance": "Boc-Arg(Tos)-Val-Tyr(Bzl)-Ile-His(Dnp)-Pro-Leu-ONB", "values": [
      {"measurement": "crude mass", "value": 7.5, "unit": "g"},
      {"measurement": "crude yield", "setting": "related to the starting Boc-Pro-OPFP", "value": 50, "unit": "%"}
    ]},
    {"substance": "Boc-Arg(Tos)-Val-Tyr(Bzl)-Ile-His(Dnp)-Pro-Ile-ONB", "values": [
      {"measurement": "crude mass", "value": 12.4, "unit": "g"},
      {"measurement": "crude yield", "value": "80% of theoretical"}
    ]},
    {"substance": "Boc-OAla-Arg(Tos)-Val-Tyr-Ile-His-Pro-Ile-OH", "values": [
      {"measurement": "step yield", "setting": "coupling step", "value": 84, "unit": "%"}
    ]}
  ]
}
